Holding throughout (test): Cell and nuclear entry (immunofluorescence, fractionation/Western blot)
What all share (assay type): cell-based
For orientation: In western blotting, separated proteins are transferred to a membrane and probed.

The test system of one series is MDA-MB-231 cells. As to conditions: MDA-MB-231, 10 μM, 1 hr.
For a further series, the system named is BT549 cells. To be noted: BT549, 10 μM, 1 hr.
For the next series, the system named is MCF10A cells. As to conditions: 10 μM, 1 hr.

The text below walks through data of patent US12201671B2, “Polypeptides for treatment of cancer” (Saint Joseph's University, priority 2019, dated 2025).

Some compounds share one wording; it may come from a single statement. Where no end group is shown, it is not given here. The star is where a group is joined. Biotin = O=C1N[C@H]2[C@H](CS[C@H]2CCCCC(=O)*)N1

Turning to “Biotin-RLQLMARLAEGTGLQIPPAAQQALQMSGSLAFGAVADLQTRLSQQ (N-terminus assumed) [CAPER peptide HCC1.3]”, the “Entry into cells and nucleus” value with MDA-MB-231 cells was “effectively enter the cells and travel to the nucleus”; in the series with BT549 cells it was “effectively enter the cells and travel to the nucleus”; in the series with MCF10A cells, “effectively enter the cells and travel to the nucleus”.
Turning to “Biotin-RLQLMARLAEGTGLQIPPAAQQALQMSGSLAFGAVAEFSFVIDLQ (N-terminus assumed) [CAPER peptide HCC1.4]”, the “Entry into cells and nucleus” value with MDA-MB-231 cells is “effectively enter the cells and travel to the nucleus”; with BT549 cells, “effectively enter the cells and travel to the nucleus”; in the series on MCF10A cells it was “effectively enter the cells and travel to the nucleus”.
Turning to “VGDALQGLRLFSTQASIGAQMEQLAAQPLRAGQMLQLAQASPLRT [CAPER scrambled peptide, scrambled control peptide, reference compound]”, the “Entry into cells and nucleus” value in the series on MDA-MB-231 cells was “effectively enter the cells and travel to the nucleus”; in the series on BT549 cells it was “effectively enter the cells and travel to the nucleus”; with MCF10A cells, “effectively enter the cells and travel to the nucleus”.
